According to PMC11136664:
Results are given in words; binding and its absence hold for the method and conditions named. Some results given as binding are weak or reduced against the parent protein; the word gives no strength.

Chains of the proteins cited; added tags and fusions are not shown.
UniProt Q9LNJ5: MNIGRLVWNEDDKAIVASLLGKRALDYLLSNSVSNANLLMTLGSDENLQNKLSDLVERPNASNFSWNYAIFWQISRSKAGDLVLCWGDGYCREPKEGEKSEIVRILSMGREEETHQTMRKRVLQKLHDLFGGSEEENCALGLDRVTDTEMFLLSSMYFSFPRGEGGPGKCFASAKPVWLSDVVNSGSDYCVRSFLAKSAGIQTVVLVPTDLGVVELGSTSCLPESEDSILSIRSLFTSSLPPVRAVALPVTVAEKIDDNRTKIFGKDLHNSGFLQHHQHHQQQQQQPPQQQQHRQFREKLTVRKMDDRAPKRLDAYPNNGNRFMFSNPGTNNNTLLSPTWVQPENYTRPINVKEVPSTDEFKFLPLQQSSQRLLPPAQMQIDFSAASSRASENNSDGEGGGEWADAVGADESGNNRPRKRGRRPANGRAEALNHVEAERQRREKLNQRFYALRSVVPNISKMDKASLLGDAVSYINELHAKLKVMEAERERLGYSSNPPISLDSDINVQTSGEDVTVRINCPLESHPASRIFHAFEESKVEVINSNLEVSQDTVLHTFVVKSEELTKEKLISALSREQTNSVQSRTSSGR

How the values were obtained:
[1] = target: JASMONATE-ASSOCIATED MYC-LIKE 2 (JAM2), GAL4-DNA binding domain fusion (A. thaliana) (UniProt Q9LNJ5); test: two-hybrid; growth assay in liquid culture for histidine autotrophy (-L,-W,-H), JAM2 fused to Gal4-BD, partners fused to Gal4-AD; growth rate µ over the first 24 h; at 25 °C and above (30 °C)
[2] = target: JASMONATE-ASSOCIATED MYC-LIKE 2 (JAM2), GAL4-DNA binding domain fusion (A. thaliana) (UniProt Q9LNJ5); test: two-hybrid; growth assay in liquid culture for histidine autotrophy (-L,-W,-H), JAM2 fused to Gal4-BD, partners fused to Gal4-AD; growth rate µ over the first 24 h; at 20 °C

**Q.** With “JASMONATE-ASSOCIATED MYC-LIKE 2 (JAM2), GAL4-DNA binding domain fusion (from UniProt Q9LNJ5 1-590)” as the substance, how does the binding [1] read?
**A.** binds

**Q.** And the binding [2]?
**A.** binds
